# The supplement of paper PMC4635364
# Counter-ions that a name gives are not always drawn. Some of the results follow. This data set is noisy: repeats of one test often differ as much as different tests do.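 ReNCell VM, a human fetal ventral-midbrain neural progenitor line, was differentiated without mitogens. Blinded raters scored images stained for doublecortin (early neurons) or tyrosine hydroxylase (dopaminergic neurons) against untreated wells (0 = no change). Scores were averaged across repeats and both raters, and compounds averaging 2 or more were selected as hits for retesting.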
# System: ReNCell VM
# Assay: neuronal differentiation score (DCX+ cell fraction vs untreated, manual image score) (score (-3 to 3)); higher = more neuronal differentiation
# Conditions: library: Phytochemical; 2 uM; 2 weeks
row,Structure (SMILES),neuronal differentiation score
1,"CC1NCCc2c1[nH]c1ccccc21 (racemic) [Eleagnine hydrochloride (R,S)]",inactive: 0
2,CN1CCC2=C[C@H](O)[C@H]3OC(=O)c4cc5c(cc4[C@H]3[C@@H]21)OCO5 [Hippeastrine hydrobromide],active: 2
3,COc1ccc(C(=O)OC2C[C@H]3CC[C@@H](C2)N3C)cc1OC (stereo partly drawn) [Convolamine hydrochloride],inactive: 0
4,CCN1C[C@]2(C)CC[C@H](OC)[C@@]34C1[C@]1(OCO[C@@]15C[C@H](OC)[C@H]1C[C@]3(O)[C@@H]5[C@H]1OC)[C@@H](OC(C)=O)[C@H]24 [Deltaline],inactive: 0
5,COc1c2c(cc3c1OCO3)CC[N+](C)=C2 [Cotarnine chloride],inactive: 0
6,COc1cc2c(cc1O)C[C@H]1c3c(cc(O)c(OC)c3-2)CCN1C [Boldine],inactive: -1
7,CN[C@@H](C)[C@H](O)c1ccccc1 [Ephedrine HCl],inactive: 0
8,CC(C)[C@H]1C(=O)O[C@@H]2CCN3CC=C(COC(=O)[C@](C)(O)[C@]1(C)O)[C@H]23 [Trichodesmine],inactive: 0
9,C=C[C@H]1CN2CC[C@H]1C[C@@H]2[C@@H](O)c1ccnc2ccccc12 [Cinchonine],inactive: 0

# Same assay, conditions: library: Prestwick; 2 uM; 2 weeks
row,Structure (SMILES),neuronal differentiation score
1,CC1OC(OC2/C=C/C=C/C=C/C=C/CC/C=C/C=C/[C@H](C)[C@@H](O)[C@@H](C)[C@H](C)OC(=O)CC(O)CC(O)CC(O)CCC(O)C(O)C[C@]3(O)CC(O)C(C(=O)O)C(C2)O3)C(O)C(N)C1O (stereo partly drawn) [Nystatine],inactive: 0
2,CCCCCC[C@H]1C(=O)O[C@H](C)[C@H](NC(=O)c2cccc(NC=O)c2O)C(=O)O[C@@H](C)[C@@H]1OC(=O)CC(C)C [Antimycin A],inactive: 0
3,COc1cc2c(cc1OC)C(C)NCC2 (stereo not drawn),inactive: 0

# Same assay, conditions: library: Spectrum; 2 uM; 2 weeks
row,Structure (SMILES),neuronal differentiation score
1,CN1[C@H]2C[C@H](OC(=O)[C@H](CO)c3ccccc3)C[C@@H]1[C@@H](O)C2,inactive: 0
2,CN(C)C(=O)Oc1cc(OC(=O)N(C)C)cc(C(O)CNC(C)(C)C)c1 (stereo not drawn),inactive: 0
3,CCC(C)(C)O,inactive: 0
4,CC[C@@H](C)C(=O)O[C@H]1[C@H](O)[C@H]2[C@@H](CN3C[C@@H](C)CC[C@H]3[C@@]2(C)O)[C@@H]2C[C@]34O[C@]5(O)[C@@H](OC(=O)[C@@](C)(O)CC)CC[C@@]3(C)[C@@H]5[C@@H](OC(C)=O)[C@@H](OC(C)=O)[C@H]4[C@@]21O,inactive: 0
5,C[C@]12C=CC(=O)C=C1CC[C@@H]1[C@@H]2CC[C@]2(C)C(=O)CC[C@@H]12,inactive: 0
6,O=c1[nH]c(=O)n(Cl)c(=O)n1Cl,inactive: 0
7,NP(N)(=O)NC(=O)c1ccc(F)cc1,inactive: 0
8,CC(=O)OCC1=C(C(=O)O)N2C(=O)[C@@H](NC(=O)CCC[C@@H](N)C(=O)O)[C@H]2SC1,inactive: 0
9,C=C/C=C\CC1=C(C)[C@@H](OC(=O)[C@@H]2[C@@H](/C=C(\C)C(=O)OC)C2(C)C)CC1=O.C=C/C=C\CC1=C(C)[C@@H](OC(=O)[C@@H]2[C@@H](C=C(C)C)C2(C)C)CC1=O,inactive: 0
10,O=C1c2ccccc2C(=O)c2ccccc21,inactive: 0
11,O=c1ccc2cc(O[C@@H]3O[C@H](CO)[C@@H](O)[C@H](O)[C@H]3O)c(O)cc2o1,inactive: 0
12,CC(O)CN1CCN(CC(=O)[O-])CCN(CC(=O)[O-])CCN(CC(=O)[O-])CC1.[Gd+3] (stereo not drawn),inactive: 0
13,COc1ccccc1N1CCNCC1,inactive: 0
14,c1ccc2c(c1)sc1ccccc12,inactive: 0
15,Cc1nccc2c1[nH]c1cc(O)ccc12,inactive: 0
16,O=P1(NCCCl)OCCCN1CCCl (stereo not drawn),inactive: 0

# Looked up by compound from above:
row,Structure (SMILES),neuronal differentiation score
2,CN(C)C(=O)Oc1cc(OC(=O)N(C)C)cc(C(O)CNC(C)(C)C)c1 (stereo not drawn),inactive: 0
14,c1ccc2c(c1)sc1ccccc12,inactive: 0
7,NP(N)(=O)NC(=O)c1ccc(F)cc1,inactive: 0

# Same assay, conditions: library: Tocriscreen; 2 uM; 2 weeks
row,Structure (SMILES),neuronal differentiation score
1,"Cc1cc(C)cc(C(=O)OC2C[C@H]3CC[C@@H](C2)N3C)c1 (stereo partly drawn) [Tropanyl-3,5-dimethylbenzoate]",inactive: 0
2,CC(=O)N(C)c1cccc(-c2ccnc3c(C(=O)c4cccs4)cnn23)c1 [Indiplon],inactive: 0
3,Cc1[nH]c2ccc(Cl)cc2c1C1=CCNCC1,inactive: 0
4,O=c1cccc2n1C[C@@H]1CNC[C@H]2C1 [(-)-Cytisine],inactive: 0
5,CN1[C@@H]2C[C@@H](OC(=O)[C@H](CO)c3ccccc3)C[C@H]1[C@@H]1O[C@@H]12 [Scopolamine hydrobromide],inactive: -3

# System: ReNCell VM
# Assay: dopaminergic neuron differentiation score (TH+ cell fraction vs untreated, manual image score) (score (0 to 3)); higher = more TH+ dopaminergic neuron differentiation
# Conditions: library: LOPAC; 2 uM; 4 weeks; BDNF 10 ng/ml + GDNF 10 ng/ml
row,Structure (SMILES),dopaminergic neuron differentiation score
1,"C[N+]1(C)CCN(c2ccccc2)CC1 [1,1-Dimethyl-4-phenyl-piperazinium iodide]",inactive: 0
2,CCCN1CCC[C@@H]2Cc3nc(N)ncc3C[C@H]21 [Quinelorane dihydrochloride],inactive: 0
3,CC[C@H]1CN2CCc3cc(OC)c(OC)cc3[C@@H]2C[C@@H]1C[C@H]1NCCc2cc(OC)c(OC)cc21 [Emetine dihydrochloride hydrate],inactive: 0
4,CN1[C@@H]2C[C@@H](OC(=O)[C@H](CO)c3ccccc3)C[C@H]1[C@@H]1O[C@@H]12 [(-)-Scopolamine hydrobromide],inactive: 0
5,COc1ccc2c(c1)[C@@]13CCCC[C@H]1[C@@H](C2)NCC3 [3-Methoxy-morphanin hydrochloride],inactive: 0
